Reference: patent US20070190226A1, “Seasoning” (Kyowa Hakko Food Specialites Co., Ltd., priority 2003, published 2007)

Assay: Sensory test of cream soup with additive, scored against cream soup to which nothing was added
Conditions: average of scores by 15 members, points 1 to 7, control = point 3; additive per 100 ml cream soup as in Table 2 (fractions 100 mg, peptides 2 mg)
Source text: (b) To 40 g of a cream soup premix comprising 44.6% (W/W) of white roux (manufactured by Hachi Foods Co., Ltd.), 3.5% (W/W) of salt, 5.1% (W/W) of granulated sugar, 11.0% (W/W) of powdered fat and oil (manufactured by UEDA OILS AND FATS MFG CO., LTD.), 7.1% (W/W) of powdered butter (manufactured by SANKYO FOODS INDUSTRY CORP.), 7.1% (W/W) of cheese powder (manufactured by Rokko Butter Co., LTD.), 8.1% (W/W) of skimmed milk powder (YOTSUBA Inc.), 5.1% (W/W) of waxy corn starch (manufactured by NIPPON STARCH CHEMICAL CO., LTD.), 2.5% (W/W) of sodium glutamate (manufactured by Kyowa Hakko Kogyo Co., Ltd.), 0.1% (W/W) of 5′-ribonucleotide (manufactured by Kyowa Hakko Kogyo Co., Ltd.), 3.5% (W/W) of chicken bouillon (manufactured by Kyowa Hakko Kogyo Co., Ltd.), 0.1% (W/W) of white pepper (manufactured by Kaneka Sun Spice Co., Ltd.), 0.2% (W/W) of Laurel powder (manufactured by Kaneka Sun Spice Co., Ltd.) and 2.0% (W/W) of powder of vegetable extract (manufactured by Kyowa Hakko Kogyo Co., Ltd.) was added hot water to make the total volume of 1000 ml. Thus, a cream soup was prepared.
(c) In a similar manner to the above (b) except that the additive shown in Table 2 was added in an amount shown in Table 2 in stead of addition of the freeze-dried powder of the solution of gelatin decomposed with collagenase or the freeze-dried powder of the solution of gelatin decomposed with pepsin, the sensory test was conducted.
In table 2, any one of the peptide consisting of an amino acid sequence represented by Gly-Pro-4Hyp, the peptide consisting of an amino acid sequence represented by Gly-Pro-Ala, the peptide consisting of an amino acid sequence represented by or Gly-Gly-Gly used was manufactured by Bachem.
Evaluation was made by giving point 3 to the “continuity of umami”, “thickness and mouthfullness” and “body taste” of the control, respectively, point 2 to the case in which somewhat weaker sensation than the control was evoked, and point 1 to the case in which weaker sensation than the case of point 2 was evoked. When stronger than the control, evaluation was made giving point 4 to somewhat stronger case, point 5 to the case stronger than the case of point 4, point 6 to the case stronger than the case of point 5, and point 7 to the case stronger than the case of point 6.
Average of scores by the 15 members was determined for the “continuity of umami”, “thickness and mouthfullness” and “body taste”.

Gly-Pro-4Hyp [Test section 4]
significantly enhanced: Body taste | Continuity of umami | Thickness and mouthfullness

Gly-Pro-Ala [Test section 5]
significantly enhanced: Body taste | Continuity of umami | Thickness and mouthfullness
